# This is one part of the list. The main result of the screen is listed elsewhere. These columns were measured beside it and carry no call. Most of these compounds were active or inconclusive in the main read-out, so they are no random draw. Words in brackets tell the shape of the fitted curve; partial curves, single points and poor fits give uncertain potencies.
# Assay: IkB Signaling
# Details: ABC-DLBCL IkBa-CBG/CBR dual luciferase ratio (green luciferase fused to IkBa over red control in OCI-Ly3 lymphoma cells), 4 h
# Procedure, shortened: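 Curves were fitted separately to fusion (green), unfused (red) and ratio luminescence, then classed by r2, magnitude and activity. Cells: OCI-Ly3, 4 h compound plus doxycycline at 37C; 10 uM MG-132 defined full response.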
# [1] = measured here: control luc red channel unless noted
compound,measurement,setting,value
Cc1nc2nncn2c(NCc2ccc(F)cc2)c1C,AC50,[1],"10 µM [falling, partial curve]"
O=C(NCc1ccc2c(c1)CCN2C(=O)c1ccc(Cl)cc1)c1cccc(F)c1,AC50,[1],"25.1 µM [falling, single point]"
O=C(Nc1nnc(S(=O)(=O)Nc2ccccc2)s1)c1ccccc1Cl,AC50,[1],"15.8 µM [falling, single point]"
Cc1cccc(CNC(=O)CCn2ccc3cc(S(=O)(=O)N4CCCC4)ccc32)c1,AC50,[1],"39.8 µM [falling, single point]"
COc1ccc(OC)c(CCNC(=O)c2cnn(-c3ccccc3)c2C2CCN(C(=O)OC(C)(C)C)CC2)c1,AC50,[1],"25.1 µM [falling, partial curve]"
O=c1c(N2CCN(c3cccc(C(F)(F)F)c3)CC2)csc2ccc(Cl)cc12,AC50,[1],"10 µM [falling, partial curve]"
COC(=O)c1cc2oc3ccccc3c2n1Cc1cc(C)ccc1C,AC50,[1],"0.00501 µM [rising, full curve, poor fit]"
O=C1CC(c2ccccc2)Cc2[nH]c(=O)c(-c3nc(-c4ccc(Cl)cc4)cs3)cc21 (stereo not given),AC50,[1],"15.8 µM [falling, partial curve]"
CCN1CCN(C(c2cccc(F)c2)c2c(O)cc(C)n(Cc3ccco3)c2=O)CC1 (stereo not given),AC50,[1],"25.1 µM [falling, partial curve]"
CC(=O)c1cccc(NC(c2ccc(F)cc2)c2nnc(-c3ccccc3)o2)c1 (stereo not given),AC50,[1],"10 µM [falling, partial curve]"
c1ccc(-c2nnc(N3CCN(c4ccccn4)CC3)c3ccccc23)cc1,AC50,[1],"10 µM [falling, partial curve]"
Cc1ccc(-n2nnnc2CNC(=O)C(C)C)cc1C,AC50,[1],"0.501 µM [falling, full curve, poor fit]"
COC(=O)c1c(-c2ccc(Cl)cc2)noc1N1CCN(c2cccc(C(F)(F)F)c2)CC1,AC50,[1],"2.51 µM [falling, full curve]"
O=C(Nc1ccccc1C(=O)OCc1cc(=O)n2c3c(sc2n1)CCCC3)c1cccc(Cl)c1,AC50,[1],"20 µM [falling, partial curve]"
Cc1cc(C)nc(NS(=O)(=O)c2ccc(NC(=O)COc3ccc(C(C)(C)C)cc3)cc2)n1,AC50,[1],"31.6 µM [falling, partial curve]"
CCOC(=O)CC(NC(=O)N1CCC(CN2CCC(C)CC2)CC1)c1ccccc1 (stereo not given),AC50,[1],"0.398 µM [falling, full curve, poor fit]"
Cc1cccc(C)c1Nc1c(-c2ccsc2)nc2ccc(Cl)cn12,AC50,[1],"10 µM [falling, partial curve]"
CCOC(=O)c1c(-c2ccccc2)csc1NC(=O)c1cc(-c2ccc(Cl)cc2)on1,AC50,[1],"15.8 µM [falling, partial curve]"
CC1=C(C(=O)Nc2ccc(C)cc2C)C(c2ccccc2)n2ncc(C(=O)Nc3ccccc3)c2N1 (stereo not given),AC50,[1],"10 µM [falling, partial curve]"
COC(=O)c1ccc2c(=O)n(CCCCCC(=O)N3CCN(c4ccc(OC)cc4)CC3)c(=O)[nH]c2c1,AC50,[1],"7.94 µM [falling, full curve]"
Cc1ccc(NC(=O)C2CCCN(S(=O)(=O)c3cccc4cccnc34)C2)c(C)c1 (stereo not given),AC50,[1],"31.6 µM [falling, single point]"
CCOC(=O)CSc1nc2ccc(NC(=O)c3ccccc3F)cc2s1,AC50,[1],"2.51 µM [falling, partial curve]"
Cc1onc(-c2ccccc2Cl)c1C(=O)Nc1sc2c(c1C#N)CCC2,AC50,[1],"39.8 µM [falling, single point]"
CCOc1ccc(CNC(=O)c2ccc(Sc3ccc(Cl)cc3)c(NC(C)=O)c2)cc1OC,AC50,[1],"31.6 µM [falling, single point]"
CC(=O)c1ccc(N2CCN(C(=O)COc3ccc(F)cc3)CC2)c(F)c1,AC50,[1],"7.94 µM [falling, partial curve]"
CCc1ccc(Nc2nc(N)nc(CSc3nc4ccccc4s3)n2)cc1,AC50,[1],"39.8 µM [falling, single point]"
O=C(NCc1cccc(F)c1)c1cccc(NC(=O)c2nsc3ccccc23)c1,AC50,[1],"6.31 µM [falling, partial curve]"
COc1ccc(OC)c(C2c3c(oc4ccc(C)cc4c3=O)C(=O)N2CCCN(C)C)c1 (stereo not given),AC50,[1],"0.631 µM [falling, partial curve]"
CCc1ccccc1NS(=O)(=O)c1ccc2c(c1)OCC(C(=O)N1CCCC1)O2 (stereo not given),AC50,[1],"15.8 µM [falling, partial curve]"
Nc1nc(Cl)nc2c1ncn2[C@@H]1O[C@@H](CO)[C@@H](O)[C@H]1O,AC50,measured here: IkB-luc green channel,"7.94 µM [rising, partial curve, poor fit]"
same,AC50,measured here: control luc red channel,"0.158 µM [rising, full curve]"
Cc1cccc(-n2ncc3c(NC4CCCC4)ncnc32)c1,AC50,[1],"20 µM [falling, partial curve]"
Cc1ccc(Cl)cc1NC(=O)Cn1c(=O)c2ccccc2n2nncc12,AC50,[1],"39.8 µM [falling, single point]"
Cc1cccc2cc(COC(=O)COc3ccccc3)c(=O)[nH]c12,AC50,[1],"0.501 µM [falling, full curve]"
COCCNC(=O)c1cc(-c2ccccc2OC)on1,AC50,[1],"0.794 µM [falling, full curve]"
C=CCn1c(COc2ccc(Cl)cc2)nnc1SCC(=O)N1CC(=O)Nc2ccccc21,AC50,[1],"25.1 µM [falling, single point]"
CCOc1ccccc1NC(=O)c1nnn(CC(=O)Nc2ccc(OC)c(OC)c2)c1N,AC50,[1],"15.8 µM [falling, partial curve]"
Cc1cc(=O)n2nc(N3CCC(C(=O)Nc4ccc(C)c(Cl)c4)CC3)sc2n1,AC50,[1],"12.6 µM [falling, partial curve]"
CCSc1ncc(Cl)c(C(=O)Nc2nc3ccc(OC)cc3s2)n1,AC50,[1],"0.01 µM [falling, full curve, poor fit]"
CCc1nonc1NC(=O)c1oc2ccccc2c1C,AC50,[1],"1 µM [rising, full curve]"
CCOc1cc(C2c3c(-c4ccc(Br)cc4)n[nH]c3C(=O)N2c2ccc(Cl)cc2)ccc1O (stereo not given),AC50,[1],"3.98 µM [falling, full curve]"
COC(=O)c1ccc(Cn2c(=O)cc(C(F)(F)F)c3c(C)nn(C)c32)cc1,AC50,[1],"0.0631 µM [rising, full curve, poor fit]"
CCCCCc1nc2c(=O)n(C)c3ccccc3c2o1,AC50,[1],"15.8 µM [falling, partial curve]"
CCN(c1ccc(OC)cc1)S(=O)(=O)c1ccc2[nH]c(=O)ccc2c1,AC50,[1],"10 µM [falling, partial curve]"
O=C(NCc1ccc(Cl)cc1)C1CCCN(c2nc3ccccc3n3cccc23)C1 (stereo not given),AC50,[1],"12.6 µM [falling, partial curve]"
O=C(Cn1c2ncccc2c(=O)n1-c1ccccc1)Nc1ccc(F)c(F)c1,AC50,[1],"39.8 µM [falling, single point]"
Cc1cc(N2CCCCC2)nc2ccc(NC(=O)/C=C/c3ccccc3Cl)cc12,AC50,[1],"3.98 µM [falling, partial curve]"
Cc1ccccc1Cn1c(=O)n(CCc2ccccc2)c(=O)c2ccccc21,AC50,[1],"10 µM [falling, partial curve]"
COc1ccccc1-c1cc(C(=O)N2CCCCC2C)no1 (stereo not given),AC50,[1],"0.1 µM [rising, full curve]"
CCCCC(=O)Nc1ccc2nc(SCC(=O)N3CCCC3)sc2c1,AC50,[1],"25.1 µM [falling, single point]"
COc1ccc(CNC(=O)c2nn(-c3ccccc3C)nc2CO)cc1,AC50,[1],"25.1 µM [falling, partial curve]"
CCOc1ccccc1CC1C(=O)Nc2ccc(Br)cc21 (stereo not given),AC50,[1],"31.6 µM [falling, single point]"
CCC(C)NC(=O)CCc1c(C)nc2cc(-c3ccc(OC)cc3OC)nn2c1C (stereo not given),AC50,[1],"1 µM [falling, full curve]"
COc1ccccc1-c1cc2nc(C)c(CCC(=O)Nc3cc(C)ccc3C)c(C)n2n1,AC50,[1],"1 µM [falling, full curve]"
CCc1cccc(NC(=O)c2ccc(CNS(=O)(=O)c3ccc4c(c3)C(C)(C)C(=O)N4C)cc2)c1,AC50,[1],"12.6 µM [falling, partial curve]"
COc1ccc(-n2nnc(-c3nc(-c4cccs4)no3)c2N)cc1,AC50,[1],"0.0251 µM [rising, full curve, poor fit]"
CCOC(=O)c1cnc2ccc(Cl)cc2c1Nc1ccc(N2CCOCC2)cc1,AC50,[1],"12.6 µM [falling, partial curve]"
O=C(Nc1ccc(C(=O)N2CCN(c3ccccc3)CC2)cc1)c1nsc2ccccc12,AC50,[1],"0.316 µM [falling, full curve]"
CCCN(CCC)CCNC(=O)C1CCN(c2nc3ccc(CC)cc3s2)CC1,AC50,[1],"15.8 µM [falling, partial curve]"
CCOC(=O)Cn1c(=O)oc2cc(S(=O)(=O)NCCCc3ccccc3)ccc21,AC50,[1],"15.8 µM [falling, partial curve]"
CC(C)CC(C(=O)Nc1oc(-c2ccco2)c(-c2ccco2)c1C#N)N1C(=O)c2ccccc2C1=O (stereo not given),AC50,[1],"15.8 µM [falling, partial curve]"
O=C(NCc1ccccc1Cl)c1cc2cccc3c2n1CCS3,AC50,[1],"31.6 µM [falling, partial curve]"
c1ccc(N2CCN(c3ccccc3)C2c2cccs2)cc1,AC50,[1],"2.51 µM [falling, partial curve]"
CC(N)=NCCCC[C@H](N)C(=O)O,AC50,[1],"2 µM [rising, partial curve] [measured here: IkB-luc green channel]"
Cc1ccnc(NS(=O)(=O)c2ccc(NC(=O)c3nc(SC(C)C)ncc3Cl)cc2)n1,AC50,[1],"0.1 µM [falling, full curve]"

# Three entries picked at random from the list so far:
compound,measurement,setting,value
CCc1nonc1NC(=O)c1oc2ccccc2c1C,AC50,[1],"1 µM [rising, full curve]"
COCCNC(=O)c1cc(-c2ccccc2OC)on1,AC50,[1],"0.794 µM [falling, full curve]"
O=C(Nc1ccccc1C(=O)OCc1cc(=O)n2c3c(sc2n1)CCCC3)c1cccc(Cl)c1,AC50,[1],"20 µM [falling, partial curve]"
